Assay results taken from PubChem BioAssay AID1347075 (National Center for Advancing Translational Sciences (NCATS), 2019).
Where “and” joins values, the source holds several entries; their conditions need not be identical. Equal values may be shown once. About 5,500 (1.4%) of roughly 400,000 compounds were called active. Inconclusive results, whose numbers are uncertain, are shown with a selection of clear calls. The call rests on the fitted dose curve; in most records, active means well fitted cell-killing curve with a large enough effect; inconclusive means small, poorly fitted or top-dose-only effect, or effect the other way; inactive means flat fitted curve, though single readings scatter. A potency beside an inconclusive call is a rough fit, not a confirmed value.

Experiment: qHTS assay for MDR1-selective chemotherapeutics: Primary screen using the parental adenocarcinoma cell KB-3-1; further: nearly all actives have a fitted effect of over 60% in size
Conditions: KB-3-1 viability, CellTiter-Glo ATP luminescence, 72 h; activity change, negative = cytotoxic: at 46.1 µM (top of the series)
How it was run: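 Cytotoxicity measured as CellTiter-Glo luminescence after 72 h at 37 C. Compound titrations were pinned onto drug-naive KB-3-1 parental adenocarcinoma cells grown in DMEM with 10% FBS, and normalized data fitted to concentration-response curves.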
On the % scale 0 is the no-effect control and ±100 the full control effect; potency means the concentration at half of the fitted maximal effect.

Row | SMILES | Potency | activity change, negative = cytotoxic
1 | Cc1ccc2nc(Cl)c3cc(C(=O)N(CCN(C)C)Cc4ccco4)sc3c2c1 | inconclusive: 23.1 µM [cytotoxic, single point] | –
2 | CN(C(=O)c1cccc(NC(=O)Cc2ccc([N+](=O)[O-])cc2)c1)C1CCCC1 | inconclusive: 18.4 µM [cytotoxic, single point] | –
3 | O=C(C=Cc1ccco1)c1ccco1 | – | inactive: -15%
4 | Cc1ccc(NC(=O)C(C)c2cccc(C(=O)c3ccccc3)c2)cc1O (stereo not given) | inconclusive: 3.66 µM [cytotoxic, full curve] | –
5 | CCOc1ccc(CCN2C(=O)C(=O)N([C@@H](Cc3ccccc3)CN3CCC[C@H]3CN3C(=O)C(=O)NC[C@@H]3Cc3ccccc3)C[C@@H]2CC(C)C)cc1 | inconclusive: 25.9 µM [cytotoxic, single point] | –
6 | COc1ccc(CC(=O)NNc2ncnc3c2cnn3-c2ccc(C)cc2)cc1 | inconclusive: 29.1 µM [cytotoxic, single point] | –
7 | O=C(c1cc(-c2cccnc2)nc2ccc(Br)cc12)N1CCN(c2ncccn2)CC1 | inconclusive: 25.9 µM [cytotoxic, single point] | –
8 | CC1(C(=O)Nc2ncc(Cc3ccc(Br)cc3)s2)Cc2ccccc2C(=O)O1 (stereo not given) | inconclusive: 16.4 µM [cytotoxic, single point] | –
9 | O=S(=O)(Nc1ccccc1)c1ccc(Oc2ncc(C(F)(F)F)cc2Cl)cc1 | inconclusive: 29.1 µM [cytotoxic, single point] | –
10 | CCNc1nc(-c2sc(NC(=O)C(C)(C)C)nc2C)c(-n2cc(-c3ccccc3)nn2)s1 | inconclusive: 20.6 µM [cytotoxic, single point] | –
11 | CCOC(=O)CCS(=O)(=O)c1nc(-c2ccccc2)cc(C(F)(F)F)n1 | inconclusive: 29.1 µM [cytotoxic, single point] | –
12 | COc1ccc(-c2nc3scc(CCNC(=O)Cc4ccc(F)cc4)n3n2)cc1 | inconclusive: 0.0073 µM [cytotoxic, full curve] | –
13 | Cc1onc(-c2ccccc2)c1C(=O)Nc1nc2c(s1)C(=O)CC(C)(C)C2 | – | inactive: 9.77%
14 | CCOc1ccc(NS(=O)(=O)c2ccc3nc(-c4ccccc4)[nH]c3c2)cc1 | – | inactive: 0.0483%
15 | COc1cccc(/C=C2\SC(=S)N(CCCC(=O)N3CCCCC3)C2=O)c1 | inconclusive: 29.1 µM [cytotoxic, single point] | –
16 | COc1ccc2sc(-c3ccc(SC)cc3)c(C#CC(C)(C)O)c2c1 | inconclusive: 14.6 µM [cytotoxic, partial curve] | –
17 | Cc1cc(NC(=O)Cc2ccccc2)c2ccccc2n1 | – | inactive: -10.2%
18 | CCN(c1ccccc1)S(=O)(=O)c1ccc(N2CCN(c3ccc(O)cc3)CC2)nc1 | inconclusive: 18.4 µM [cytotoxic, partial curve, poor fit] | –
19 | Cc1ccc(N(C(=O)c2ccccn2)C(C(=O)NC2CCCCC2)c2ccncc2)cc1 (stereo not given) | inconclusive: 23.1 µM [rising, single point] | –
20 | Cc1nn(-c2ccccc2)c2sc(C(=O)Nc3cccc(O)c3)cc12 | inconclusive: 18.4 µM [cytotoxic, partial curve] | –
21 | COc1ccc(NC(=O)c2sc3nc(C)nc(N4CCN(c5ccccn5)CC4)c3c2C)c(OC)c1 | inconclusive: 20.6 µM [cytotoxic, single point] | –
22 | Cc1ccc(-c2nc(Nc3ccc(O)cc3)c3ccccc3n2)cc1 | inconclusive: 29.1 µM [cytotoxic, single point] | –

Row | SMILES | Potency | activity change, negative = cytotoxic
23 | O=C(Nc1ccccc1)Nc1ccccc1 | inconclusive: 0.0065 µM [rising, full curve] | –
24 | O=C1NC(=O)C2(CCCCCCC2)N1 | – | inactive: 14.8%
25 | S=C(NCCCCN(Cc1ccc(Cl)cc1)c1ccc(Br)cn1)NCCCc1cnc[nH]1 | inconclusive: 32.6 µM [cytotoxic, single point] and inconclusive: 29.1 µM [cytotoxic, single point] | –
26 | CCc1nnc(NC(=O)CSc2nccn2-c2cc(C)cc(C)c2)s1 | active: 18.4 µM | –
27 | CCc1ccc(N=C2N=C(N)c3ccccc32)cc1 | inconclusive: 29.1 µM [cytotoxic, single point] | –
28 | Cc1nnc(-c2cccc(Br)c2)c2cn(-c3ccccc3Cl)nc12 | inconclusive: 29.1 µM [cytotoxic, single point] | –
29 | O=C(Nc1nc(-c2ccc(F)c(F)c2)cs1)c1ccc(OCC2CCCO2)cc1 (stereo not given) | inconclusive: 0.92 µM [cytotoxic, partial curve, poor fit] | –
30 | COc1ccccc1-c1ncn(Cc2cccc(-c3ccccc3)c2)c1CC(C)C | inconclusive: 20.6 µM [cytotoxic, single point] | –
31 | CCCCC(CC)CN1C(=O)/C(=C/c2ccncc2)SC1=S (stereo not given) | inconclusive: 29.1 µM [cytotoxic, single point] | –
32 | Cc1ccc(NS(=O)(=O)c2ccccc2Cl)c2c1CC(C)(C)O2 | inconclusive: 10 µM [cytotoxic, partial curve, poor fit] | –
33 | O=[N+]([O-])c1ccc(Sc2nnnn2-c2ccccc2)nc1 | inconclusive: 23.1 µM [cytotoxic, single point] | –
34 | Cc1nn(-c2ccccc2)c2c1C(c1ccco1)C(C#N)=C(N)O2 (stereo not given) | inconclusive: 20.6 µM [cytotoxic, single point] | –
35 | O=C(COC(=O)c1ccc(Br)o1)c1ccc(S(=O)(=O)N2CCCCC2)cc1 | inconclusive: 32.6 µM [cytotoxic, single point] | –
36 | CC(=O)O[C@H]1C(=O)[C@@]2(C)C([C@H](OC(=O)c3ccccc3)[C@]3(O)C[C@H](OC(=O)[C@H](O)[C@@H](NC(=O)c4ccccc4)c4ccccc4)C(C)=C1C3(C)C)[C@]1(OC(C)=O)CO[C@@H]1C[C@H]2O (stereo not given in full) | active: 0.058 µM | –
37 | Cc1sc2ncnc(N3CCC(C(=O)N(C)CC(=O)Nc4ccc(Cl)c(C(F)(F)F)c4)CC3)c2c1C | active: 20.6 µM | –
38 | CCOC(=O)C(=Cc1ccc(-n2ccnc2)cc1)C(=O)OCC | active: 20.6 µM | –
39 | CCOC(=O)Cn1c2c(c(=N)c3c1CCC3)CCC2 | inconclusive: 22.4 µM [cytotoxic, single point] | –
40 | S=C(NCc1cccs1)Nc1cc(Cl)cc(Cl)c1 | inconclusive: 23.1 µM [cytotoxic, single point] | –
41 | C/C(=N\NC(=O)COc1ccccc1-c1ccccc1)c1ccc(O)cc1O | inconclusive: 3.26 µM [cytotoxic, full curve] | –
42 | CCCCCN(C(=O)CCC(=O)OCC(=O)Nc1ccc(C)cc1F)c1c(N)n(CCCC)c(=O)[nH]c1=O | inconclusive: 29.1 µM [rising, single point] | –
43 | COC(=O)N1CCN(c2ccc(Cl)c(Cl)c2)CC1 | inconclusive: 23.1 µM [cytotoxic, single point] | –
44 | COc1cc(OC)cc(-c2cn[nH]c2N)c1 | inconclusive: 0.103 µM [rising, full curve] | –

Row | SMILES | Potency | activity change, negative = cytotoxic
45 | CCOc1ccc(-c2c(C(=O)N/N=C/c3c[nH]c4ccccc34)nnn2-c2nonc2N)cc1 | – | inactive: -5.74%
46 | Cc1cc(C)c(Cn2c(C(O)c3ccccc3)nc3ccccc32)c(C)c1 (stereo not given) | inconclusive: 29.1 µM [cytotoxic, single point] | –
47 | N#C/C(=C(/O)COC(=O)CCC1CCCCC1)c1nc2ccccc2[nH]1 | inconclusive: 20.6 µM [cytotoxic, single point] | –
48 | Cc1ccc(NC(=O)[C@H](Cc2c[nH]c3ccccc23)NC(=O)[C@@H]2Cc3ccccc3CN2)c(C)c1 | active: 1.84 µM | –
49 | COc1cccc(OCC(=O)N(Cc2nc(-c3ccc(Cl)cc3)no2)C(C)C)c1 | inconclusive: 14.6 µM [cytotoxic, single point] | –
50 | O=C(Nc1ccccc1N1CCCC1)C1CCN(C(=O)c2ccc(Cl)cc2)CC1 | inconclusive: 25.9 µM [rising, single point] | –
51 | Cc1ccc(NC(=O)CO/N=C(\N)c2ccccc2)cc1C | – | inactive: 1.06%
52 | CCCN1C(=O)C(=O)N(CC(=O)N2c3ccccc3NC(=O)CC2C)C1=O (stereo not given) | – | inactive: -22.1%
53 | Cc1ccc(NC(=O)CN(C)S(=O)(=O)c2cccc3nsnc23)cc1C | – | inactive: 9.11%
54 | ClC(Cl)(c1nnnn1-c1ccccc1)c1nnnn1-c1ccccc1 | – | inactive: 4%
55 | O=C(COC(=O)CCc1ccc(S(=O)(=O)N2CCOCC2)cc1)NCc1ccc(Cl)cc1 | – | inactive: 10.1%
56 | CCOC(=O)c1c(CSc2cccs2)n(C)c2cc(Br)c(O)c(CN(C)C)c12 | inconclusive: 20.6 µM [cytotoxic, single point] | –
57 | O=C1c2ccccc2C(=O)c2c1ncn2-c1ccccc1 | inconclusive: 29.1 µM [cytotoxic, single point] | –
58 | O=C(NCCCn1ccnc1)c1cc(-c2cccs2)on1 | active: 14.6 µM | –
59 | Nc1ccccc1N=c1ssnc1Cl | – | inactive: -12.1%
60 | CCc1ccc(C(C(=O)NC2CCCC2)N(C(=O)/C=C/C(=O)Nc2cc(C)on2)c2ccccc2C)cc1 (stereo not given) | inconclusive: 29.1 µM [cytotoxic, single point] | –
61 | CC(=O)N1CCCc2cc(S(=O)(=O)N(C)CC(=O)Nc3ccc(Cl)cc3C)ccc21 | inconclusive: 9.2 µM [cytotoxic, partial curve] | –
62 | Cc1cc(C)c(C)c(S(=O)(=O)N2CCC(C(=O)Nc3ccc(S(=O)(=O)N4CCOCC4)cc3)CC2)c1C | inconclusive: 20.6 µM [cytotoxic, single point] | –
63 | Cc1nc(-c2coc3cc(O)c(C)cc3c2=O)cs1 | inconclusive: 20.6 µM [cytotoxic, single point] | –
64 | Cc1ccc(CC(=O)NCc2ccc(F)cc2)cc1 | inconclusive: 29.1 µM [cytotoxic, single point] | –
65 | O=C(CN1CCN(c2ccccn2)CC1)N1c2ccccc2CCc2ccccc21 | – | inactive: 4.84%

Five structures out of the list, ordered by count of non-hydrogen atoms, rising.
Row | SMILES | Potency | activity change, negative = cytotoxic
54 | ClC(Cl)(c1nnnn1-c1ccccc1)c1nnnn1-c1ccccc1 | – | inactive: 4%
47 | N#C/C(=C(/O)COC(=O)CCC1CCCCC1)c1nc2ccccc2[nH]1 | inconclusive: 20.6 µM [cytotoxic, single point] | –
52 | CCCN1C(=O)C(=O)N(CC(=O)N2c3ccccc3NC(=O)CC2C)C1=O (stereo not given) | – | inactive: -22.1%
48 | Cc1ccc(NC(=O)[C@H](Cc2c[nH]c3ccccc23)NC(=O)[C@@H]2Cc3ccccc3CN2)c(C)c1 | active: 1.84 µM | –
62 | Cc1cc(C)c(C)c(S(=O)(=O)N2CCC(C(=O)Nc3ccc(S(=O)(=O)N4CCOCC4)cc3)CC2)c1C | inconclusive: 20.6 µM [cytotoxic, single point] | –
